Drawing on PubChem BioAssay AID662 (National Center for Advancing Translational Sciences (NCATS), 2007), this text covers AC50 for 67 molecules.

For orientation: AC50 means the concentration at which the activity in the assay is half-maximal.

Molecules are shown by their SMILES. The list shows a part of the results. Shown are side measurements of this screen, not its main read-out; they come without a call. Most of these compounds were active or inconclusive in the main read-out, so they are no random draw. Potencies come from curve fits of mixed quality, noted in brackets.

This experiment can be described thus: Cell signaling CRE-BLA (Fsk stim). The following applies: CHO CRE-bla reporter (cAMP response element driving beta-lactamase), forskolin EC10, beta-lactamase ratio; measured here: 460 nm blue channel. Summed up: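 CHO CRE-bla cells, overnight plating in Opti-MEM with 0.5% dialyzed FBS; cpd titration + EC10 NKH 477, 3 h 37 °C; CCF4 2 h RT; ex 405/em 460 vs 530 ratio → %Activity, AC50.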
As to `Cc1cc(Nc2ccc(C)c(Br)c2)n2nc(C)nc2n1`, the AC50 was 12.6 µM [rising, single point]. To `COc1ncc2nc(-c3ccccc3)c(=O)n(C[C@H]3CCCO3)c2n1` belongs 12.6 µM [rising, partial curve]; to `COc1cccc(-c2nnc(SCC(=O)OC(C)C)n2Cc2ccco2)c1`, 1 µM [rising, full curve, poor fit].

Consider `CCN(CC)CCn1c(-c2ccccc2)nc2c(NCCOC)nc(C)nc21`, for which the AC50 was 10 µM [rising, partial curve]. To `COc1cccc(Cn2c(=O)c(-c3cn(C)c4ccccc34)nc3cncnc32)c1` belongs 15.8 µM [rising, partial curve]; to `OCC(CO)(CO)n1cnnn1`, 10 µM [falling, partial curve]; to `COc1ccc(-c2nc3cnc(OC)nc3n(C)c2=O)cc1`, 15.8 µM [rising, partial curve]. To `COc1ccc(OC)c(NC(=O)CSc2nc3ccccc3c(=O)n2CCNC(C)=O)c1` belongs 12.6 µM [rising, partial curve]; to `Cn1c(=O)c2cc(S(=O)(=O)NCCC(=O)Nc3ccc(Cl)cc3)ccc2n(C)c1=O`, 0.1 µM [falling, partial curve]. As for `CCn1c(=O)cc(OCC(=O)NC2CCCCC2)c2ccccc21`, the AC50 was 12.6 µM [rising, partial curve]. The same measure for `N[C@@H]1CONC1=O`: 5.01 µM [rising, partial curve]. The same measure for `CCNc1nc(NCC)n2c(SCc3ccc(F)cc3)nnc2n1`: 6.31 µM [rising, single point]; for `Cn1nc(-c2ccc(N3CCOCC3)c(NC(=O)COc3ccccc3)c2)c2ccccc2c1=O`: 0.501 µM [rising, full curve, poor fit]; for `CCCCn1c(SCC(=O)N2CC(=O)Nc3ccccc32)nnc1-c1ccoc1C`: 0.00316 µM [falling, full curve, poor fit]. To `CSc1ccccc1NC(=O)c1c(C)noc1C` belongs 12.6 µM [rising, partial curve]; to `Cc1ccc(CCNC(=O)CCNS(=O)(=O)c2ccc3c(c2)c(=O)n(C)c(=O)n3C)cc1`, 0.158 µM [falling, full curve, poor fit]; to `COc1ccccc1NC(=O)Cn1cnc2c(cnn2-c2ccccc2)c1=O`, 12.6 µM [rising, partial curve]. In the case of `CC1CCCCN1C(=O)Cn1c(=O)n(CCC(=O)NCc2ccco2)c(=O)c2sccc21` (configuration not stated), the AC50 is 0.158 µM [falling, full curve]. To `N/N=C1/CC(=O)NC(=O)N1` belongs 3.98 µM [rising, single point]; to `Cc1nnc(NC(=O)CSc2nnc(Cc3ccccc3)n2-c2ccccc2)s1`, 12.6 µM [rising, single point]. For the molecule `O=C(CSc1nnc2scc(-c3ccc(Cl)cc3)n12)NCc1ccc2c(c1)OCO2`, the half-maximal activity concentration (AC50) was 12.6 µM [rising, partial curve]. `CCCCc1cc(=O)oc2cc(OCC(=O)N(CC)CC)c(Cl)cc12`: the AC50 was 10 µM [rising, partial curve]. `Cc1cc(NC(=O)CC(C)(C)C)nc2c1c(=O)oc1ccccc12`: the AC50 is 3.98 µM [rising, full curve, poor fit]. To `O=C(CSc1nc2ccsc2c(=O)n1Cc1ccccc1)NCc1ccco1` belongs 10 µM [falling, partial curve]; to `CC(C)CCNC(=O)NC(=O)CSc1nnc(-c2ccccc2Br)o1`, 3.98 µM [falling, partial curve]; to `O=C(c1ccco1)N1CCN(c2cc(=O)n(C3CCCCC3)c(=O)[nH]2)CC1`, 12.6 µM [falling, partial curve]. To `N#Cc1c(-c2ccccc2)cc(-c2ccco2)c(C#N)c1N` belongs 5.01 µM [falling, partial curve]; to `COc1ccc(-c2cn3cccnc3n2)cc1NC(=O)C1CCCC1`, 1.26 µM [falling, partial curve, poor fit]; to `Cn1c(CCNC(=O)c2ccco2)nc2cc(NS(=O)(=O)c3ccccc3)ccc21`, 0.0158 µM [falling, full curve, poor fit]. Take `CN=C1SC(CC(=O)Nc2sc(C)c(C)c2C(=O)OC)C(=O)N1C` (configuration not stated): the AC50 was 5.01 µM [rising, single point]. `CCOc1cc(NC(=O)C2CCCCC2)c(OCC)cc1NC(=O)c1ccco1`: the AC50 is 3.16 µM [rising, single point]. The same measure for `CCOC(=O)c1c(C)[nH]c(C)c1C(=O)COC(=O)CNC(=O)c1ccc(OCC)cc1`: 3.16 µM [rising, single point]; for `O=C1c2ccccc2-c2ncnc3c(N4CCOCC4)cc(N4CCOCC4)c1c23`: 2.51 µM [rising, full curve]; for `Cn1c(SCc2ccc(C#N)cc2)nnc1-c1cccc(Cl)c1`: 0.0501 µM [rising, full curve, poor fit]. The same measure for `Cc1nn(-c2ccccc2)c2c1C1(C(=O)Nc3ccccc31)N1C(=N2)Sc2ccccc21` (configuration not stated): 12.6 µM [falling, partial curve]; for `O=S(=O)(O)c1cc(O)c2c(N=Cc3ccccc3O)cc(S(=O)(=O)O)cc2c1`: 3.98 µM [rising, single point]. Regarding `Cc1ccc(S(=O)(=O)NCc2ccc(C(=O)N3CCN(c4ccccn4)CC3)cc2)cc1`, the AC50 is 0.01 µM [falling, full curve, poor fit]. The same measure for `O=C(NCCCN1CCCC1=O)c1ccc2c(c1)ncn2C1CCCCC1`: 12.6 µM [rising, single point]; for `O=c1oc2ccccc2n1CSc1nc2ccccc2s1`: 5.01 µM [falling, single point]; for `O=c1c2c3nc4ccccc4nc3n(/N=C/c3cccs3)c2ncn1-c1ccccc1`: 12.6 µM [rising, partial curve]. To `Cc1cccc(NC(=O)CSc2nnc(-c3ccccc3)n2N)c1` belongs 3.16 µM [falling, full curve, poor fit]; to `CCn1c(SCC(=O)NCc2ccco2)nnc1C(C)C`, 0.501 µM [falling, full curve, poor fit]; to `O=C(CCN1CCN(c2ccc(F)cc2)CC1)Nc1ccc(F)cc1`, 20 µM [falling, partial curve, poor fit].

Consider `CCN(CCNC(=O)CCCn1nc(C)n2c(cc3sccc32)c1=O)c1ccccc1`, for which the AC50 was 10 µM [rising, single point]. The same measure for `CC(=O)C1=C(C)NC(SCSc2ccccc2)=C(C#N)C1c1cccnc1` (configuration not stated): 2 µM [rising, full curve, poor fit]; for `Cc1nn(Cc2ccccc2)c(C)c1NC(=O)c1cc(-c2ccco2)on1`: 0.0126 µM [falling, full curve, poor fit]. To `Cc1c(C(=O)N2CCCC2)oc2c1-c1[nH]ncc1CC2` belongs 3.98 µM [rising, partial curve]. Turning to `Clc1ccc(Cn2c(CN3CCCC3)nc3ccccc32)cc1`, the half-maximal activity concentration (AC50) was 12.6 µM [falling, single point]. The same measure for `COC(=O)c1cccc(NC(=O)Cn2cnc3c2c(=O)n(C)c(=O)n3C)c1`: 15.8 µM [rising, single point]; for `Nn1c(-c2cccs2)nc2sc3c(c2c1=O)CCCC3`: 10 µM [rising, partial curve]. To `CCc1ccc(NC(=O)CSc2nc3c(c(=O)n(C)c(=O)n3C)n2C)cc1` belongs 12.6 µM [rising, partial curve]; to `O=C(CN(C(=O)CCC(=O)Nc1nccs1)c1ccc2c(c1)OCO2)NCC1CCCO1` (configuration not stated), 0.126 µM [falling, single point]. With `COc1ccc(OC)c(CNC(=O)C2CCCN(c3nc4ccccc4o3)C2)c1` (configuration not stated), the AC50 was 1.26 µM [rising, full curve, poor fit]. On to `c1ccc(Nc2nc(-c3ccoc3)nc3ccccc23)cc1`, for which the AC50 was 5.01 µM [rising, partial curve].

Consider `O=C(NCc1ccc(N2CCCC2=O)cc1)c1cnccn1`, for which the concentration at half-maximal activity (AC50) was 0.1 µM [falling, partial curve, poor fit]. The same measure for `CCN(CC)C(=O)c1cn(CC)c(=O)c2cc(OC)c(OC)cc12`: 15.8 µM [rising, single point]; for `Cc1c(=O)n(OCc2ccccc2)c2ccccc2[n+]1[O-]`: 3.16 µM [rising, single point]; for `CCOc1ccc2[nH]c(=O)c(C(c3nnnn3CC3CCCO3)N3CCc4ccccc4C3)cc2c1` (configuration not stated): 12.6 µM [rising, partial curve]. Turning to `COc1ccc(-c2cc(C(=O)N3CCCCC3)no2)cc1OC`, the AC50 is 10 µM [rising, single point]. Take `COc1ccccc1CNC(=O)CSc1nc(-c2ccccc2)cn1N`: the AC50 is 25.1 µM [falling, single point]. To `COCCn1c(=NC(=O)CSC(C)=O)sc2cc(OC)ccc21` belongs 10 µM [rising, single point]; to `c1ccc(N2CCN(c3nc4ccccc4n4nnnc34)CC2)cc1`, 0.1 µM [falling, full curve]; to `CC(C)c1nnc(NC(=O)CCC(=O)NCC2CCCO2)s1` (configuration not stated), 5.01 µM [falling, partial curve]. Regarding `CCOC(=O)C1CCN(c2ncnc3c2oc2ccc(Br)cc23)CC1`, the AC50 was 10 µM [rising, partial curve]. To `COc1ccc(Cl)cc1C(=O)N(Cc1nc(-c2cccc(C)c2)no1)C(C)C` belongs 12.6 µM [falling, single point]; to `Cc1ccc(-n2ncc(C(=O)NCc3ccc4c(c3)OCO4)c2NC(=O)c2ccco2)cc1C`, 20 µM [falling, partial curve]. The same measure for `CCCCNc1nc(C)nc2c1nc(-c1ccccc1)n2C1CCN(Cc2ccccc2)C1` (configuration not stated): 5.01 µM [rising, single point].
